The other results are listed elsewhere or left out. This data set is noisy: repeats of one test often differ as much as different tests do.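 Human embryonic kidney cells were transiently transfected with a plasmid bearing a Renilla luciferase gene under the HSV-TK promoter. This first-round screen tests roughly ten thousand compounds for ones that increase reporter output.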

This experiment deals with HEK 293FT. Put plainly: log relative Renilla luciferase luminescence (reporter expression vs reference, reference not stated) (log (base not stated)); higher = higher recombinant reporter expression. The following applies: 10 µM; time after transfection 48 h.
As to `CCC(C)n1ncn(-c2ccc(N3CCN(c4ccc(OCC5COC(Cn6cncn6)(c6ccc(Cl)cc6Cl)O5)cc4)CC3)cc2)c1=O` (stereo not given), the log is -0.5.
With `O=c1c(O[C@@H]2O[C@H](CO)[C@H](O)[C@H](O)[C@H]2O)c(-c2ccc(O)c(O)c2)oc2cc(O)cc(O)c12` the figure was -0.176; with `CCOC(=O)O[C@]1(C(=O)OCCl)CC[C@H]2[C@@H]3CCC4=CC(=O)C=C[C@]4(C)[C@H]3[C@@H](O)C[C@@]21C`, -0.781.
Take `C=CC1=C(C(=O)O)N2C(=O)[C@@H](NC(=O)/C(=N\O)c3csc(N)n3)[C@H]2SC1`: the log was 0.0116.
As to `CC(C)(C#N)c1cc(Cn2cncn2)cc(C(C)(C)C#N)c1`, the log amounted to 0.113.
For `COC(=O)C1=C(C)NC(C)=C(C(=O)OC(C)C)C1c1cccc2nonc12` (stereo not given), the log was -0.126.
Turning to `O=C(NCCN1CCOCC1)c1ccc(Cl)cc1` [4-Chloro-N-(2-morpholin-4-yl-ethyl)-benzamide], the log was determined as 0.015.
For `Clc1ccc2c(c1)CCc1cccnc1C2=C1CCNCC1`, the log amounted to 0.0247.
Regarding `CC[C@]1(O)C[C@@H]2CN(CCc3c([nH]c4ccccc34)[C@@](C(=O)OC)(c3cc4c(cc3OC)N(C)[C@H]3[C@@](O)(C(N)=O)[C@H](O)[C@]5(CC)C=CCN6CC[C@]43[C@@H]65)C2)C1`, the log was -0.705.
Consider `O=c1[nH]cnc2c1ncn2[C@H]1CC[C@@H](CO)O1`, for which the log is -0.169.
The value for `COCCCC/C(=N\OCCN)c1ccc(C(F)(F)F)cc1` [Fluvoxamine] was -0.00376; that for `CCOc1cc(CC(=O)N[C@@H](CC(C)C)c2ccccc2N2CCCCC2)ccc1C(=O)O` was -0.13.
Regarding `CN(C)CC/C=C1/c2ccccc2COc2ccc(CC(=O)O)cc21`, the log was 0.146.
Consider `CC(C)c1ccc2oc3nc(N)c(C(=O)O)cc3c(=O)c2c1`, for which the log was -0.126.
For `Cc1nc(=O)c2cc(CN(C)c3ccc(C(=O)N[C@@H](CCC(=O)O)C(=O)O)s3)ccc2[nH]1`, the log was determined as 0.0695.
For the compound `C[C@]12CC[C@@H]3c4ccc(O)cc4CC[C@H]3[C@@H]1CC[C@@H]2O`, the log is 0.0839.
Turning to `CCC1=C[C@H]2CN(C1)Cc1c([nH]c3ccccc13)[C@@](C(=O)OC)(c1cc3c(cc1OC)N(C)[C@H]1[C@@](O)(C(=O)OC)[C@H](OC(C)=O)[C@]4(CC)C=CCN5CC[C@]31[C@@H]54)C2`, the log is -0.541.
`COc1cccc2c1C(=O)c1c(O)c3c(c(O)c1C2=O)C[C@@](O)(C(=O)CO)C[C@@H]3O[C@H]1C[C@H](N)[C@H](O)[C@H](C)O1`: the log is -1.4.
On to `COc1cc(C(=O)NC2CCCNC2)cc(OC)c1OC` (stereo not given), for which the log was -0.226.
With `CCOC(=O)C1=C(C)NC(C)=C(C(=O)OC)C1c1cccc([N+](=O)[O-])c1` (stereo not given) the figure was -0.412; with `CN1CC(=O)N2[C@H](c3ccc4c(c3)OCO4)c3[nH]c4ccccc4c3C[C@@H]2C1=O`, -0.0868; with `CCN1CCN(c2cc3c(cc2F)c(=O)c(C(=O)O)cn3C2CC2)CC1`, 0.162.
Turning to `CN(CCO)CC(O)Cn1cnc2c1c(=O)n(C)c(=O)n2C` (stereo not given), the log is 0.171.
For `Cc1ccsc1C(=CCCN1CCC[C@@H](C(=O)O)C1)c1sccc1C`, the log worked out at 0.0503.
As to `CC(=O)N1CCN(c2ccc(OCC3COC(Cn4ccnc4)(c4ccc(Cl)cc4Cl)O3)cc2)CC1` (stereo not given), the log was -0.437.
As to `O=C(O)CCc1nc(-c2ccccc2)c(-c2ccccc2)o1`, the log is -0.236.
`CCOC(=O)[C@H](CCc1ccccc1)N[C@H]1CCc2ccccc2N(CC(=O)O)C1=O`: the log is -0.143.
For the compound `Cc1ccc(O)c([C@H](CCN(C(C)C)C(C)C)c2ccccc2)c1`, the log is -0.000179.
For the compound `CC(C)[C@H]1CC[C@H](C(=O)N[C@H](Cc2ccccc2)C(=O)O)CC1`, the log turned out to be 0.135.
As for `CNCCCCOc1ccccc1Cc1ccccc1` [Bifemelane], the log is 0.101.
Turning to `CC1CNc2c(cccc2S(=O)(=O)N[C@@H](CCCNC(=N)N)C(=O)N2CC[C@@H](C)C[C@@H]2C(=O)O)C1` (stereo not given in full), the log was -0.0986.
In the case of `COC(=O)C1=C(C)NC(C)=C(C(=O)OC2CCCN(Cc3ccccc3)C2)C1c1cccc([N+](=O)[O-])c1` (stereo not given), the log was -1.08.
For `Nc1nc(O)c2ncn(CCC(CO)CO)c2n1`, the log was -0.471.
The value for `O=C1[C@H](CC[C@H](O)c2ccc(F)cc2)[C@@H](c2ccc(O)cc2)N1c1ccc(F)cc1` was 0.00866.
For `Cc1c(O)cccc1C(=O)N[C@@H](CSc1ccccc1)[C@H](O)CN1C[C@H]2CCCC[C@H]2C[C@H]1C(=O)NC(C)(C)C`, the log is -0.00677.
The value for `CC(=O)O[C@@]12CO[C@@H]1C[C@H](O)[C@@]1(C)C(=O)[C@H](O)C3=C(C)[C@@H](OC(=O)[C@H](O)[C@@H](NC(=O)OC(C)(C)C)c4ccccc4)C[C@@](O)([C@@H](OC(=O)c4ccccc4)[C@H]21)C3(C)C` was 0.0755.
In the case of `CC(=O)CCCCn1cnc2c1c(=O)n(C)c(=O)n2C`, the log is 0.106.
`CC#C[C@]1(O)CC[C@H]2[C@@H]3CCC4=CC(=O)CCC4=C3[C@@H](c3ccc(N(C)C)cc3)C[C@@]21C`: the log is -0.141.
For the compound `CC[C@H](C)C(=O)O[C@H]1CCC=C2C=C[C@H](C)[C@H](CC[C@@H]3C[C@@H](O)CC(=O)O3)[C@H]21` [mevastatin], the log was 0.202.
The value for `O=C(O)/C=C/c1ccc(Cn2ccnc2)cc1` was -0.117.

The values above are taken from the supplement of paper PMC7024190.
